Data as given in PubChem BioAssay AID686938 (Drosophila RNAi Screening Center, 2013).

Assay: 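Looking for CRAC channel components and the factors controlling them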 (primary screen)
Cell system: Drosophila S2R+ cells
Knock-down reagent: long dsRNA against Drosophila genes, about 0.25 µg dsRNA per well, roughly 10,000 cells
Timing: 5 days of knock-down before the calcium assay
Treatment: thapsigargin (SERCA pump blocker) to empty calcium stores; entry signal taken 4 min after adding it
Measured: 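Per-well fluo-4 fluorescence in two replicates, unnormalised, measured in resting cells and 4 min after store depletion by the SERCA blocker thapsigargin; ratio of the two present in few wells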
Scale: calcium entry signal: higher = stronger calcium signal after store depletion; entry to resting ratio: higher = more calcium entry relative to resting level; resting calcium signal: higher = higher resting calcium signal
Rule for the call: 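Called when the plate z-score of the entry-to-rest ratio, mean of duplicates, falls below −3; wells with low overall dye signal (Fmax z below −2) or more than five off-targets excluded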
Meaning of the calls: active = strongly reduced calcium entry; inactive = no strong reduction
The deposit covers about 23,000 reagents; below is a random part of those that have a named target and a result. In the full data, 75 (0.33%) got an active call. 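Raw plate signals without normalisation; calls rest on plate z-scores that were not deposited; ratio present for only 364 wells.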 A plus sign joins genes that one reagent is predicted to hit. The record does not give: the dose of the treatment.

Target gene	amplicon	calcium entry signal, replicate 1 (fluorescence units)	calcium entry signal, replicate 2 (fluorescence units)	entry to resting ratio	resting calcium signal, replicate 1 (fluorescence units)	resting calcium signal, replicate 2 (fluorescence units)	activity call
wnd (wallenda)	DRSC09626	3.81e7	3.73e7		2.13e7	1.86e7	inactive
wnd (wallenda)	DRSC11046	2.11e7	3.32e7		1.10e7	2.28e7	inactive
wnd (wallenda)	DRSC21373	4.13e7	3.77e7		2.12e7	1.73e7	inactive
wrd (well-rounded)	DRSC16337	1.99e7	2.65e7		1.21e7	5.17e7	inactive
wrd (well-rounded)	DRSC16344	3.40e7	4.62e7		5.81e7	2.07e7	inactive
wrd (well-rounded)	DRSC23189	3.69e7	4.70e7		1.75e7	1.97e7	inactive
Son (Son RNA binding protein)	DRSC16400	3.15e7	3.50e7		1.44e7	1.78e7	inactive
CG4615	DRSC17491	3.31e7	2.44e7		1.56e7	1.11e7	inactive
CG4615	DRSC18376	2.39e7	2.42e7		1.34e7	1.36e7	inactive
ProtA (Protamine A)	DRSC03372	3.36e7	2.31e7		1.53e7	1.09e7	inactive
CG3149	DRSC17732	2.98e7	3.45e7		1.50e7	1.57e7	inactive
ec (echinus)	DRSC17285	3.08e7	3.23e7		1.53e7	1.32e7	inactive
ec (echinus)	DRSC17286	2.66e7	3.21e7		1.44e7	1.31e7	inactive
ec (echinus)	DRSC18658	2.40e7	3.51e7		1.27e7	1.49e7	inactive
side-II (sidestep II)	DRSC01427	3.47e7	4.09e7		1.85e7	2.15e7	inactive
side-II (sidestep II)	DRSC01429	3.58e7	4.54e7		2.02e7	2.14e7	inactive
side-II (sidestep II)	DRSC01913	3.77e7	2.70e7		1.63e7	1.25e7	inactive
side-II (sidestep II)	DRSC01932	3.60e7	6.01e7		1.57e7	2.71e7	inactive
side-II (sidestep II)	DRSC02480	3.16e7	1.75e7		1.38e7	1.01e7	inactive
side-II (sidestep II)	DRSC22508	5.67e7	3.69e7		2.75e7	1.73e7	inactive
sloth2 + sloth1	DRSC17922	3.11e7	4.82e7		1.68e7	2.11e7	inactive
sloth2 + sloth1	DRSC17923	3.26e7	4.83e7		1.52e7	2.20e7	inactive
SP1029	DRSC16848	3.28e7	4.52e7		1.65e7	1.91e7	inactive
CG34334	DRSC20643	4.68e7	4.77e7		2.18e7	1.99e7	inactive
CG33630	DRSC14546	2.91e7	2.24e7		1.61e7	1.31e7	inactive
Sce (Sex combs extra)	DRSC16825	3.22e7	3.85e7		1.64e7	2.00e7	inactive

In a second layout: results already given
Target gene,amplicon,"calcium entry signal, replicate 1 (fluorescence units)","calcium entry signal, replicate 2 (fluorescence units)",entry to resting ratio,"resting calcium signal, replicate 1 (fluorescence units)","resting calcium signal, replicate 2 (fluorescence units)",activity call
side-II (sidestep II),DRSC01429,3.58e7,4.54e7,,2.02e7,2.14e7,inactive
side-II (sidestep II),DRSC01913,3.77e7,2.70e7,,1.63e7,1.25e7,inactive

The listing continues.
Target gene	amplicon	calcium entry signal, replicate 1 (fluorescence units)	calcium entry signal, replicate 2 (fluorescence units)	entry to resting ratio	resting calcium signal, replicate 1 (fluorescence units)	resting calcium signal, replicate 2 (fluorescence units)	activity call
CG11444	DRSC17784	4.17e7	4.10e7		1.80e7	2.01e7	inactive
Tmtc3 (Transmembrane O-mannosyltransferase targeting cadherins 3)	DRSC04444	4.46e7			2.09e7		inactive
CenB1A (Centaurin beta 1A)	DRSC16923	4.76e7	2.02e7		2.53e7	1.19e7	inactive
TbCMF46	DRSC02221	3.48e7	4.55e7		1.66e7	1.94e7	inactive
spn-A (spindle A)	DRSC16812	3.11e7	5.50e7		1.53e7	2.46e7	inactive
drongo	DRSC00814	5.17e7			2.97e7		inactive
Raf (Raf oncogene)	DRSC18821	3.74e7	3.73e7	2	1.89e7	1.74e7	inactive
Raf (Raf oncogene)	DRSC23311	3.58e7	3.48e7		1.80e7	1.71e7	inactive
CG32579	DRSC19872	4.34e7	2.82e7		2.12e7	1.28e7	inactive
Etl1	DRSC02911	4.46e7			2.22e7		inactive
CG10959	DRSC17769	2.53e7	2.34e7		1.11e7	9.89e6	inactive
CG6005	DRSC15945	3.46e7	2.35e7		1.68e7	1.16e7	inactive
CG12728	DRSC17883	3.18e7	3.51e7		1.53e7	1.58e7	inactive
CG10300	DRSC14225	4.29e7	4.37e7		2.18e7	1.99e7	inactive
